Tested on: myoglobin
Experiment: MALDI-TOF mass spectra of myoglobin with surfactant, intact and acid-degraded
Conditions: for myoglobin MALDI signal after surfactant degradation: degraded about 30 minutes in 1% TFA at pH 2.5
Description: The various embodiments of non-ionic acid-labile surfactants and methods of use described herein may be better understood when read in conjunction with the following representative examples. The following examples are included for purposes of illustration and not limitation. MALDI-TOF spectra were acquired using an ABI 4800 mass spectrometer in the linear mode.
Referring to FIGS. 1A-C, 0.1% N-[2,2-Bis(pentyloxy)propan-1-aminocarbonyl]-β-maltosylamine was mixed with myoglobin in water. The samples were spotted onto a MALDI pre-spotted target with α-cyano-4-hydroxycinnamic acid (CHCA) MALDI matrix using C8 reversed phase tips. FIG. 1A includes a mass spectra of 20 pmol myoglobin in water. Myoglobin was detected at m/z 8488 and m/z 16979. FIG. 1B includes a mass spectra of 20 pmol myoglobin dissolved in 0.1% N-[2,2-Bis(pentyloxy)propan-1-aminocarbonyl]-β-maltosylamine. […] FIG. 1C includes a mass spectra of 20 pmol myoglobin dissolved in 0.1% N-[2,2-Bis(pentyloxy)propan-1-aminocarbonyl]-β-maltosylamine after being degraded for about thirty (30) minutes in 1% trifluoroacetic acid (TFA) at pH 2.5. Myoglobin was detected at m/z 8482 and m/z 16967.
Referring to FIGS. 4A-C 1% N-[2,2-Bis(hexyloxy)propan-1-aminocarbonyl]-β-maltosylamine was mixed with myoglobin. The samples were spotted onto a MALDI pre-spotted target with α-cyano-4-hydroxycinnamic acid (CHCA) MALDI matrix using C8 reversed phase tips. FIG. 5A includes a mass spectra of 20 pmol myoglobin in water. Myoglobin was detected at m/z 8488 and m/z 16979. FIG. 4B includes a mass spectra of 20 pmol myoglobin dissolved in 1% N-[2,2-Bis(hexyloxy)propan-1-aminocarbonyl]-β-maltosylamine. […] FIG. 5C includes a mass spectra of 20 pmol myoglobin dissolved in 1% N-[2,2-Bis(hexyloxy)propan-1-aminocarbonyl]-β-maltosylamine after being degraded for about thirty (30) minutes in 1% trifluoroacetic acid (TFA) at pH 2.5. Myoglobin was detected at m/z 8492 and m/z 16986.

Row | SMILES | myoglobin MALDI signal, intact surfactant (20 pmol myoglobin dissolved in 1% surfactant) | myoglobin MALDI signal after surfactant degradation (1% surfactant) | myoglobin MALDI signal, intact surfactant (20 pmol myoglobin dissolved in 0.1% surfactant) | myoglobin MALDI signal after surfactant degradation (0.1% surfactant)
1 | CCCCCCOC(C)(CNC(=O)NC1OC(CO)C(OC2OC(CO)C(O)C(O)C2O)C(O)C1O)OCCCCCC (stereo not drawn) [N-[2,2-Bis(hexyloxy)propan-1-aminocarbonyl]-β-maltosylamine] | no signal from the myoglobin was detected | a signal from the myoglobin was detected when the surfactant was degraded |  | 
2 | CCCCCOC(C)(CNC(=O)NC1OC(CO)C(OC2OC(CO)C(O)C(O)C2O)C(O)C1O)OCCCCC (stereo not drawn) [N-[2,2-Bis(pentyloxy)propan-1-aminocarbonyl]-β-maltosylamine] |  |  | no signal from the myoglobin was detected | a signal from the myoglobin was detected when the surfactant was degraded

Reference: patent publication US9206226B2, “Non-ionic acid-labile surfactants and methods of use” (Protea Biosciences, Inc., priority 2011, dated 2015)
